Each number is a percent effect as filed. How 0% and 100% were set is not recorded. Most values in the screen are low, and negative values occur. This is an unselected part of the compounds tested.

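Whole-parasite assay of Trypanosoma brucei over 72 hours; the read-out is not stated. Concentration: 30 µM. The record gives no direction; compounds that gave an IC50 in retests scored well above the rest, so higher reads as stronger inhibition. Values scatter widely below zero; nearly all retest evidence comes from the higher of the two concentrations used. Of about 64,000 compounds tested this way, about 940 (1.5%) reached 50% or more in at least one test.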

structure | Percent Effect
O=C1CC[C@H](C(=O)Nc2cnn(-c3ccccc3Br)c2)N1 | -24.19%
Cc1cc(N2CCc3c(ncn3C)C2)nc(N)n1 | -12.19%
COCCN1CC[C@]2(CN(Cc3ccccn3)C[C@H]2C)C1=O.O=C(O)C(F)(F)F.O=C(O)C(F)(F)F | -56.65%
CCn1cnnc1C1CCN(C(=O)c2ccc(Cl)cc2OC)CC1 | 20.22%
CC(=O)c1ccc(CNC(=O)c2c(C)cc(C)cc2C)nc1C | 7.235%
[H][C@@]12CCCN1C[C@H](CCSC)N(Cc1coc3ccc(C)cc3c1=O)C2 | -49.63%
Cc1ccccc1SCC(=O)NS(=O)(=O)c1ccc2c(c1)OCCO2 | -2.584%
c1cc2c(cc1CN1CCC(Cc3noc(C4CC4)n3)CC1)OCCO2 | -32.51%
Cc1nc(CC(=O)NCCNc2nccc(C(F)(F)F)n2)cs1 | -4.624%
O=C(COCC(F)(F)F)NS(=O)(=O)c1ccc2c(c1)OCCCO2 | -2.455%
Cc1cc(C(=O)N2CCCC(c3nc(C)no3)C2)on1 (stereo not shown) | -17.67%
CCOCCn1c(=O)[nH]c2cc(C(=O)N(C)Cc3cnn(C)c3)ccc21 | -0.07893%
COC(=O)C1CCN(C(=O)Cn2ccc(-c3ccsc3)n2)CC1 | 2.302%
CCC(C(=O)N(C)Cc1cc(COC)[nH]n1)n1cccn1 (stereo not shown) | 10.74%
CCOCC1CN(Cc2ccc3c(c2)OCO3)Cc2ncn(C)c21 (stereo not shown) | 6.899%
CC1(C)Cc2ccc(C(=O)NC3CCOCC3)c(O)c2O1 | -19.62%
COCc1cncc2c1CCN(C(=O)c1ccc(C)o1)C2 | 4.847%
Cc1ccc(C(=O)NCCC(C)C)cc1NS(C)(=O)=O | -22.9%
NC(=O)CCCNC(=O)Cc1csc(Cc2ccccn2)n1 | -27.66%
[H][C@@]12CC[C@@](O)(c3ccc(C)cn3)[C@]1([H])CN(Cc1ccc(Cl)cc1Cl)C2 | -1.046%
CCOCC(=O)Nc1ccc(N2CCSCC2)cc1C | 7.074%
Cc1ocnc1C(=O)N(C)[C@@H]1CC[C@@H](Oc2ccccc2)[C@@H]1O | -1.244%
Cc1cc(NC(=O)C(C)N2CCN(c3nc(C)cs3)CC2)on1 (stereo not shown) | -5.644%
[H][C@@]12CCN(C(=O)c3cc(-c4ccco4)nc4c(Cl)cccc34)[C@]1([H])CNC2 | 15.9%
O=C(NCCC(=O)N1CCCc2ccccc21)c1c(O)cc(F)cc1F | -3.798%
O=C(CN1CCOC1=O)N1CC[C@@H](c2ccc3ccccc3c2)[C@H](O)C1 | -104.4%
CN(CC(N)=O)Cc1c(Cl)ccc2cccnc12 | -14.91%
CC(C)(C)n1ncc2c1NC(=O)CC2c1cccs1 (stereo not shown) | -0.9328%
CC(C)c1nccn1Cc1cc(C(=O)NCC(C)n2ccnc2)n[nH]1 (stereo not shown) | 4.579%
N#Cc1cccc(CNCCNC(=O)Cc2cccc(F)c2)c1 | -22.93%
O=C(NCCNS(=O)(=O)c1cc(F)cc(F)c1)c1ccoc1 | 3.953%
COc1cccc2c1OCC(CNc1cc(N)nc(SC)n1)C2 (stereo not shown) | -9.119%
O=C(O)C(F)(F)F.O=C(O)C(F)(F)F.[H][C@@]12CCN(c3ncccn3)[C@]1([H])CC[C@@H](C(=O)N1CCN(C)CC1)O2 | -37.51%
Cc1nc(N)cc(NCc2csc(N(C)C)n2)n1 | -19.2%
CCN1CCCn2c(nc(CNC(=O)c3cnoc3C)cc2=O)C1.O=C(O)C(F)(F)F | 9.742%
COc1cc(F)ccc1NC(=O)NC(C)C(=O)NC(C)(C)C (stereo not shown) | -12.16%
C[C@@H]1CN(C(=O)CSc2nncn2C)C[C@@]1(O)C1CC1 | -14.71%
O=C(NCc1cccnc1)C1=NOC2(CCCN(CCO)C2)C1 (stereo not shown) | -6.536%
CCOc1ccccc1C(=O)N1CCCC(O)(CN(C)C)C1 (stereo not shown) | -56.27%
CCS(=O)(=O)c1ncc(CN2CCCC2)n1CCc1ccccc1 | -17.04%
COc1ccc(C(=O)N2C[C@@H](C)[C@@](C)(O)C2)cc1N1CCOCC1 | -20.91%
[H][C@]12CC[C@](O)(CC1)C(CO)N2C(=O)Nc1ccccc1 (stereo partly shown) | -40.78%
Cc1oc2c(c1C(=O)N1C[C@H](O)[C@]3(CCCO3)C1)CCCC2 | 1.189%
O=c1[nH]c(C2CCOC2)nc2cc(F)c(F)cc12 (stereo not shown) | -83.04%
Cc1nc(CN2CCC(CNC(=O)C3(C#N)CCCC3)CC2)oc1C | -18.5%
CC(C)(C)CN1CCCC2(CCN(C(=O)c3cn[nH]c3)C2)C1 (stereo not shown) | -8.762%
O=C(O)C(F)(F)F.[H][C@@]12COC[C@]1(CNC(=O)c1cscn1)CN(Cc1nccs1)C2 | -14.17%
[H][C@]12CNC[C@@]1(C(=O)NCCC1(O)CCN(C)CC1)CN(C1CCCC1)C2 | 0.8382%
CC(C)Oc1ccccc1C1CC(=O)Nc2nc(N3CCOCC3)sc21 (stereo not shown) | -37.3%
O=C(c1cc(Cl)c2c(c1)OCCO2)N1CCCC(n2cncn2)C1 (stereo not shown) | -9.245%
c1cc(CNCCC2CCCO2)ccn1 (stereo not shown) | -39.26%
COc1cccc(N2C(=O)CC3(CCCNC3)C2=O)c1.Cl (stereo not shown) | 7.934%
Cc1nc(COc2ccc(CNCCn3cccn3)cc2)cs1 | 9.275%
COCc1nn(C(C)C)c2c1CCN(Cc1ccc(C)s1)C2.O=C(O)C(F)(F)F | -8.406%
Cc1nc(CN(C)Cc2nc(-c3sccc3C)oc2C)no1 | -14.12%
CCc1nc2n(n1)CC(NCc1noc(-c3ccc(C)cc3)n1)CC2 (stereo not shown) | -13.07%
Cc1ccc(C(C(=O)NCc2n[nH]c(N)n2)N(C)C)cc1 (stereo not shown) | -78.15%
O=C(O)C(F)(F)F.[H][C@@]12CCN(CCc3ccccc3)C[C@]1([H])[C@H](C(=O)N1CCCC1)CCO2 | -7.899%
O=C(N1CCCC1)N1Cc2nccn2CC(Cn2ncccc2=O)C1 (stereo not shown) | -4.497%
CC(C)c1noc(C2CC(=O)N(CCN(C)C)C2)n1 (stereo not shown) | -2.535%
Cc1ccc(N2CCC(c3[nH]ncc3Cc3ccccc3)CC2)nn1 | 58.22%
COCC1CN(CC2CC2)Cc2ncn(CC3CC3)c21 (stereo not shown) | -20.75%
O=C(O)C(F)(F)F.O=C(O)C(F)(F)F.[H][C@@]12CO[C@@H](CN(C)Cc3cccnc3)[C@]1([H])CCN(C(=O)C1CC1)C2 | -84.81%
CN1C(=O)CCCC12CCCN(Cc1nccs1)C2.O=C(O)C(F)(F)F (stereo not shown) | -63.27%
CO[C@H]1CNC[C@@H]1NC(=O)CCc1nc(-c2ccccc2)no1 | 14.68%

The values are deposited in ChEMBL (CHEMBL3988442, “University of Dundee, Small-Polar-MMV Screening Library” (2021)).